Measured values: patent publication US5109111A (The Salk Institute for Biological Studies, priority 1990, dated 1992)
HELM strings list residues between dots; [ac] is acetyl, [am] amide, other brackets name non-standard units.

Assay: general procedure: Boc solid-phase peptide synthesis; MBHA hydrochloride resin (Bachem), substitution about 0.1 to 0.7 mmoles/gm; DCC; ONp active ester with HOBt for Asn or Gln
Settings: whole synthesis, isocratic reversed-phase HPLC (Waters, C18); thin layer chromatography

Row | Substance | final purity (method not given)
1 | PEPTIDE1{D.L.T.F.H.L.L.R.E.V.L.E.[Nle].A.R.A.E.Q.L.A.Q.Q.A.H.S.N.R.K.L.[Nle].E.I.I.[am]}$$$$V2.0 | about 99%
2 | PEPTIDE1{[dF].H.L.L.R.E.V.L.E.[Nle].A.R.A.E.Q.L.A.Q.Q.A.H.S.N.R.L.L.[Nle].E.I.I.[am]}$$$$V2.0 | about 68.2%
3 | PEPTIDE1{F.H.L.L.R.E.V.L.E.[Nle].A.R.A.E.Q.L.A.Q.Q.A.H.S.N.R.K.L.[Nle].E.I.I.[am]}$$$$V2.0 | about 99%
4 | PEPTIDE1{D.L.T.F.H.L.L.R.E.V.L.E.[Nle].A.R.A.E.Q.L.A.Q.Q.A.H.S.N.R.R.L.[Nle].E.I.I.[am]}$$$$V2.0 | about 99%
5 | PEPTIDE1{[dF].H.L.L.R.E.V.L.E.[Nle].A.R.A.E.Q.L.A.Q.Q.A.H.S.N.R.R.L.[Nle].E.I.I.[am]}$$$$V2.0 | about 99%
6 | PEPTIDE1{[dF].H.L.L.R.E.V.L.E.[Nle].A.R.A.E.Q.L.A.Q.Q.A.H.S.N.R.K.L.[Nle].E.I.I.[am]}$$$$V2.0 | about 95%
7 | H-D-2Nal-His-Leu-Leu-Arg-Glu-Val-Leu-Glu-Nle-Ala-Arg-A la-Glu-Gln-Leu-Ala-Gln-Gln-Ala-His-Leu-Asn-Arg-Lys-Leu -Nle-Glu-Ile-Ile-NH2 | about 60%
8 | PEPTIDE1{[dF].H.L.L.R.E.V.L.E.[Nle].A.R.A.E.Q.L.A.Q.Q.A.H.S.N.R.K.[CML].[Nle].E.I.I.[am]}$$$$V2.0 | about 99%
9 | H-Phe-His-Leu-Leu-Arg-Glu-Val-Leu-Glu-Nle-Ala-Arg-Ala-G lu-Gln-Leu-Ala-Gln-Gln-Ala-His-Ser-Asn-Arg-Arg-Leu-N le-Glu-Ile-Ile-NH2 | about 98%
